Some of the results follow.

Amino acid sequences for entries named in this document (tags omitted).
UniProt Q0JBA9, entry or part of it: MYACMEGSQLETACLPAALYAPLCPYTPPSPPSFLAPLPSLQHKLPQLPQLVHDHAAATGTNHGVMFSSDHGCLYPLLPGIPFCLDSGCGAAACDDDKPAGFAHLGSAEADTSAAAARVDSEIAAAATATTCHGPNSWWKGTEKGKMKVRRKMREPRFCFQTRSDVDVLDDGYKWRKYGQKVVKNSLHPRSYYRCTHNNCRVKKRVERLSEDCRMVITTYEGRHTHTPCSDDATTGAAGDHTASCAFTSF

The target of the experiment is OsWRKY34 (Oryza sativa, UniProt Q0JBA9 1-250). The experiment is described as follows: protein-binding microarray (RPBM); PBS, 2% BSA, 51.3 ng/ul salmon testes DNA, 50 uM zinc acetate, 200 nM TF, 25 C, 1 h; high values mean tight binding. Conditions: protein: recombinant; tags: N-terminal polyhistidine and DsRed monomer fusion (pET32a); label: CyDye5-dUTP incorporated in the synthesized complementary strand; 3' TTTTT single-stranded linker to array surface; dsDNA, one strand shown. Summed up:
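For the binding signal, per-feature fluorescence intensity was read in arbitrary units on an Axon 4000B scanner. Before scanning, a 2% BSA-blocked custom Agilent array made double-stranded with Cy5-dUTP was washed after 1 h at 25 °C with 200 nM protein and 50 µM zinc acetate. The proteins were Ni–NTA-purified transcription factors with N-terminal polyhistidine and DsRed fusions, expressed in E. coli BL21-CodonPlus.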
For “ATCTTCCATCTCTCTTTCCCTAGGACGCGCAGCGCTGTTTCGGAGTCACCTAGTGCAG”, the binding signal is 8680 fluorescence intensity (a.u.).

As to “ATGCTACTTATCTCACATGATGTCTTGGGTATTGTGTAGACGGAGTCACCTAGTGCAG”, the binding signal is 8100 fluorescence intensity (a.u.). In the case of “TCACCATAGTTCTGCTACCTGCTCGTCTCACTCTAGTTGCCGGAGTCACCTAGTGCAG”, the binding signal was 11400 fluorescence intensity (a.u.).

On to “ATTAGTATACTTTCTCTCTTTGCTTTTTTTTTTCCTTTCTCGGAGTCACCTAGTGCAG”, for which the binding signal was 8710 fluorescence intensity (a.u.). Consider “CTCCTTACGCCGGCACGAATCGCCTCCCTGATGTTGACCCCGGAGTCACCTAGTGCAG”, for which the binding signal was 9340 fluorescence intensity (a.u.). As for “AGATTGGGGCTGGCAGTAGAGCGACGGGTTTCGCGGCCGTCGGAGTCACCTAGTGCAG”, the figure is 8960 fluorescence intensity (a.u.); as for “CGACGACTTATCACGATGCAGCAAGTGACGTTGACCACGCCGGAGTCACCTAGTGCAG”, 9580 fluorescence intensity (a.u.). As for “TGCATTAGTCTATCTAGGTTGGTTGTTTGCATTAGTCTATCGGAGTCACCTAGTGCAG”, the figure is 11000 fluorescence intensity (a.u.); as for “TTACTCAAGCAAACCCTCTAGAGTCATTTTCTTTATTGCACGGAGTCACCTAGTGCAG”, 8650 fluorescence intensity (a.u.); as for “TTTCTTCCGCTCCACGCCGCCCTCCGCCGCCGCCGCCATGCGGAGTCACCTAGTGCAG”, 8040 fluorescence intensity (a.u.).

With “AAGTCCGCCGCCATTTTCTTCTCGCCCCATCCCTGCGCCCCGGAGTCACCTAGTGCAG”, the binding signal is 10900 fluorescence intensity (a.u.). To “CCTGCATGGCTTGCTGGCTCGTGTCCGCGTCGTACGACGACGGAGTCACCTAGTGCAG” belongs 8920 fluorescence intensity (a.u.); to “GCCGTCAATCGTGGCAGCCAATCGTTTCGTCGTTCGTCCACGGAGTCACCTAGTGCAG”, 8150 fluorescence intensity (a.u.).

Consider “GCCCACATGCCAGCCACTGCCACCGGCCGCCTTCCGAGCCCGGAGTCACCTAGTGCAG”, for which the binding signal is 8970 fluorescence intensity (a.u.). With “TATACTTGTTGGCTGCTGCTTTGTGTGTGGTGTGTTGTTTCGGAGTCACCTAGTGCAG”, the binding signal was 10400 fluorescence intensity (a.u.). To “TCGTGTCTCGGTATATCAGAATCTCCTACAACGTTCTCGACGGAGTCACCTAGTGCAG” belongs 8640 fluorescence intensity (a.u.). Take “ATCCACACACCGCTTGATTTCAGTCGCAAAAGGCTTCAGTCGGAGTCACCTAGTGCAG”: the binding signal is 8720 fluorescence intensity (a.u.).

“TCTTCCACTTCATCTTCTTCCATTTCAACACCTTGCTCCTCGGAGTCACCTAGTGCAG”: the binding signal was 8310 fluorescence intensity (a.u.). To “CTCGCCGTCTGCTCCTCTGATCGGCCTCCTCAGTTGACACCGGAGTCACCTAGTGCAG” belongs 9980 fluorescence intensity (a.u.); to “CCCATCAACCGCCAAAGACTTCCCGCGCGCGTCTACATATCGGAGTCACCTAGTGCAG”, 8450 fluorescence intensity (a.u.).

Regarding “GCTGCACTTTTGCATCATTTTGCCTGCATTCTTATGTCCGCGGAGTCACCTAGTGCAG”, the binding signal was 8140 fluorescence intensity (a.u.). As for “TCTCAACGACACGACGACATCCGCTTGTATTTCTTTCGTTCGGAGTCACCTAGTGCAG”, the figure is 10500 fluorescence intensity (a.u.). As for “TTCCCAACAAATCACAATCCTCCACCATTCACTTTTCCCACGGAGTCACCTAGTGCAG”, the figure is 8420 fluorescence intensity (a.u.); as for “TGGCGTCGCGTCTTTTGGGGATATATTGGGAGTGTATAGTCGGAGTCACCTAGTGCAG”, 8590 fluorescence intensity (a.u.); as for “ACACACGAGGAGATGCCGCTTTATTGTTGACATGTCATTTCGGAGTCACCTAGTGCAG”, 10100 fluorescence intensity (a.u.). As for “TCATTTCTGTGTGTGTTTTGGAGGTGGGTGAGGGTCTGTTCGGAGTCACCTAGTGCAG”, the binding signal was 9920 fluorescence intensity (a.u.). To “ATTTCGGCTGTGTTCGTTTGGACGTTTTCCCGTCGCGCTACGGAGTCACCTAGTGCAG” belongs 8030 fluorescence intensity (a.u.); to “CACCCGTCATCATCACTCTCGCCGCGCTGTCCGCTTCTCGCGGAGTCACCTAGTGCAG”, 11700 fluorescence intensity (a.u.). As to “ATTCCTATGTTTTCTCGTTCCTGCTATTCAATGAGGCCCTCGGAGTCACCTAGTGCAG”, the binding signal was 8960 fluorescence intensity (a.u.). To “TGATTCCACGCGAGTCGTCTTCTTCTTCTTCTTCTTCTTCCGGAGTCACCTAGTGCAG” belongs 8700 fluorescence intensity (a.u.); to “AATTTGACATACTTTCTTAATACCTAGAGTCTAATTTTTTCGGAGTCACCTAGTGCAG”, 8320 fluorescence intensity (a.u.). As for “CATCATGTGCCTTTATCTCTTTTAATTTCTATGTTTTTCTCGGAGTCACCTAGTGCAG”, the figure is 9740 fluorescence intensity (a.u.); as for “GCAGCAGATTCCTTGCGTCTCCCGATCCGCGCAAAGCGGCCGGAGTCACCTAGTGCAG”, 8400 fluorescence intensity (a.u.); as for “CTTGGTTCGATTTGAGATCTTGATAGACTGTGGCGGCGATCGGAGTCACCTAGTGCAG”, 8380 fluorescence intensity (a.u.). On to “TTCCCACCCCGCTCGTCGGCCTCCCTACTAACTTCAGCTTCGGAGTCACCTAGTGCAG”, for which the binding signal was 8540 fluorescence intensity (a.u.). For “TATGCCTATAAATTCAAGCTTATTGTTTCATTTTTTATGCCGGAGTCACCTAGTGCAG”, the binding signal is 8350 fluorescence intensity (a.u.). To “TTTTCTTCTGCTTTCTGAAATTAAGTGTTTCGTGTCATGTCGGAGTCACCTAGTGCAG” belongs 9160 fluorescence intensity (a.u.); to “TCCATTGTATCTGTACCGCCTCCGCCTCCCCATCGCGCAGCGGAGTCACCTAGTGCAG”, 8470 fluorescence intensity (a.u.); to “TCTTGCCATCTAGATCTCAGGATATTGCTCCACCTAAACTCGGAGTCACCTAGTGCAG”, 13100 fluorescence intensity (a.u.). To “GCTCGTCCGCGACCGCCGCCGCCGCCGCCACCTCTACCACCGGAGTCACCTAGTGCAG” belongs 8460 fluorescence intensity (a.u.); to “CCTCTCCCTACTACTGTCGTATCGTCTCCTACCTCGCCTCCGGAGTCACCTAGTGCAG”, 8340 fluorescence intensity (a.u.). As for “TCGCAATTTACATACAAACCGTGCAATTGGTTTTTTCGTCCGGAGTCACCTAGTGCAG”, the figure is 9900 fluorescence intensity (a.u.).

These data come from PMC7819943, “Rice protein-binding microarrays: a tool to detect cis-acting elements near promoter regions in rice”.
